These are yes or no findings as the source states them, for the method shown. Some results given as binding are weak or reduced against the parent protein; the word gives no strength.
Biological target: human recombinant HER3 (coated on ELISA plate) (human) (UniProt P21860)
Assay: ELISA on coated human recombinant HER3

Chains of the proteins cited; added tags and fusions are not shown. Lines headed by an entry give the natural chain unless they say otherwise; changes in a name come on top.
UniProt P21860: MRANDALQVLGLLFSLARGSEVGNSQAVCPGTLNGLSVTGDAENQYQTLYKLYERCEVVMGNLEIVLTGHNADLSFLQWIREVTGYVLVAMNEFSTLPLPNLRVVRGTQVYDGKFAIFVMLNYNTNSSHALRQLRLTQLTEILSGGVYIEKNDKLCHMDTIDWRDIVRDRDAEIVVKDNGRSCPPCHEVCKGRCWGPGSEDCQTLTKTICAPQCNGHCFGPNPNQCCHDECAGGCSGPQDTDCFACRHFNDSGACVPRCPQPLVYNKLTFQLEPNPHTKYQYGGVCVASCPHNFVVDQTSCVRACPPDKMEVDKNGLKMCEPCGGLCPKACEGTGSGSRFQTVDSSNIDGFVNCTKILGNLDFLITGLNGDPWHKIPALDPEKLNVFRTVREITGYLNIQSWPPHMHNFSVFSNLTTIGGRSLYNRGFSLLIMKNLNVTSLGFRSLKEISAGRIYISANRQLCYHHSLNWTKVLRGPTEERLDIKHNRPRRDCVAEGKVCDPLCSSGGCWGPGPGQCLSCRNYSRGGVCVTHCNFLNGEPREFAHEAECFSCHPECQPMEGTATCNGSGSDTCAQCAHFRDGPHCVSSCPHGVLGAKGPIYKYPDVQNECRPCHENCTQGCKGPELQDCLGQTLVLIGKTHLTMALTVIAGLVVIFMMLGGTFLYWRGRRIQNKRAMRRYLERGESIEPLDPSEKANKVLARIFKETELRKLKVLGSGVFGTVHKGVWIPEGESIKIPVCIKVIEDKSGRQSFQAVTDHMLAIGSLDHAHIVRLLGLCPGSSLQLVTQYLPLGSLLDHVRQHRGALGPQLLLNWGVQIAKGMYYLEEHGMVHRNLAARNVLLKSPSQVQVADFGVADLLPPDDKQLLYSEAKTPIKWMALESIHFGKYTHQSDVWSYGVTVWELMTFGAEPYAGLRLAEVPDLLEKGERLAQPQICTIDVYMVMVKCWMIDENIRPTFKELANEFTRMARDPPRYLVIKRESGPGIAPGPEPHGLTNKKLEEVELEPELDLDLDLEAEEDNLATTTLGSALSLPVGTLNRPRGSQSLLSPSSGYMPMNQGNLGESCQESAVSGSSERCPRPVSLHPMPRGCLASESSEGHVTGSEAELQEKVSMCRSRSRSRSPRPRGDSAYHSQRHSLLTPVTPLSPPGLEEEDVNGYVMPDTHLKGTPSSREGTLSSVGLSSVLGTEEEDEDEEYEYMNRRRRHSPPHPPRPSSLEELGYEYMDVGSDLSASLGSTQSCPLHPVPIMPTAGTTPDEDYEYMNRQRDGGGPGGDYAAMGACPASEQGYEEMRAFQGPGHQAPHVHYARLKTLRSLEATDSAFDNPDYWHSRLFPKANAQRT

binding: binds
B1: anti-HER3 IgG monoclonal antibody consisting of heavy chain SEQ ID NO: 77 and light chain SEQ ID NO: 78 (unmodified) (antibody, V domains shown)
VH: QVQLVESGGGLVKPGGSLRLSCAASGFTFSDYAMSWIRQAPGKGLEWVSTISDGGTYTYYPDSVKGRFTISRDNAKNSLYLQMNSLRAEDTAVYYCAREWGDYDGFDYWGQGTLVTVSS
VL: DIQMTQSPSSLSASVGDRVTITCRASQEISGYLSWYQQKPGKAPKRLIYAASTLDSGVPSRFSGSGSGTEFTLTISSLQPEDFATYYCLQYDSYPYTFGQGTKLEIKR

Source: KR20230128271A
